Reference: publication PMC3762724
These are yes or no findings as the source states them, for the method shown. In cells and extracts the contact can be indirect. Some binding calls cover weakened binding; strength is not graded here. Tags and fused reporters may be left off the sequences shown.

T1: Myc-hMSH4 (human) (UniProt O15457)
T1 sequence: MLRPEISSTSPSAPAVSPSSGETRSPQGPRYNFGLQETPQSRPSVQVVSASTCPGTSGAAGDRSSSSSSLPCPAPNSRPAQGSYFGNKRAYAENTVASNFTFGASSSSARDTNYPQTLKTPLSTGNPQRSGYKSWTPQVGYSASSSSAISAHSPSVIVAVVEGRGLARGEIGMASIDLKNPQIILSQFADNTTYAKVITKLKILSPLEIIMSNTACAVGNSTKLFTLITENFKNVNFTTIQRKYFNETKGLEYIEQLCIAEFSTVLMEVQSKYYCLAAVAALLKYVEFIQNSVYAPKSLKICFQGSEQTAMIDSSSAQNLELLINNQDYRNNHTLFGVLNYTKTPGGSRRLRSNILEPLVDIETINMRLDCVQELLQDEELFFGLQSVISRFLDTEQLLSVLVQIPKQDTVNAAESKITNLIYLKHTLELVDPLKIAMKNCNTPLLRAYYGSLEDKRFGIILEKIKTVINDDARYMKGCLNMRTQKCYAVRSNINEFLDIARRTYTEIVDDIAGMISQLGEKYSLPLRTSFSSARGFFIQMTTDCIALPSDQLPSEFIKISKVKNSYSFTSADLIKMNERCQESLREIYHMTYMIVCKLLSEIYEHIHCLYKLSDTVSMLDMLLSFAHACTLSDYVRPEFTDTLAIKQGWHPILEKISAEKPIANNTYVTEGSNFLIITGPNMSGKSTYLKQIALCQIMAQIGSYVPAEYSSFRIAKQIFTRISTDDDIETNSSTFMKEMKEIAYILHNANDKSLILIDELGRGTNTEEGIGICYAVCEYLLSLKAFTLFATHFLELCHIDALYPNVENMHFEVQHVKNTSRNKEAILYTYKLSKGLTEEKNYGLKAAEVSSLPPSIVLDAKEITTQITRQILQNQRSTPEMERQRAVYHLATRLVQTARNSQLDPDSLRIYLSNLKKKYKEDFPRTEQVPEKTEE


Target: T1, Myc-hMSH4 (human)
Assay: co-IP; lysates of 293T stable lines expressing hMSH5 or a variant, transiently transfected with Myc-hMSH4, collected 40 hours after transfection; precipitated with mouse α-Myc antibody at 4 °C for 2 hours, Protein A/rG agarose beads; blotted with α-hMSH5 and α-hMSH4

| Binder | binding |
| --- | --- |
| f-hMSH5 (wild-type hMSH5) (protein, UniProt O43196 1-834) MASLGANPRRTPQGPRPGAASSGFPSPAPVPGPREAEEEEVEEEEELAEIHLCVLWNSGYLGIAYYDTSDSTIHFMPDAPDHESLKLLQRVLDEINPQSVVTSAKQDENMTRFLGKLASQEHREPKRPEIIFLPSVDFGLEISKQRLLSGNYSFIPDAMTATEKILFLSSIIPFDCLLTVRALGGLLKFLGRRRIGVELEDYNVSVPILGFKKFMLTHLVNIDQDTYSVLQIFKSESHPSVYKVASGLKEGLSLFGILNRCHCKWGEKLLRLWFTRPTHDLGELSSRLDVIQFFLLPQNLDMAQMLHRLLGHIKNVPLILKRMKLSHTKVSDWQVLYKTVYSALGLRDACRSLPQSIQLFRDIAQEFSDDLHHIASLIGKVVDFEGSLAENRFTVLPNIDPEIDEKKRRLMGLPSFLTEVARKELENLDSRIPSCSVIYIPLIGFLLSIPRLPSMVEASDFEINGLDFMFLSEEKLHYRSARTKELDALLGDLHCEIRDQETLLMYQLQCQVLARAAVLTRVLDLASRLDVLLALASAARDYGYSRPRYSPQVLGVRIQNGRHPLMELCARTFVPNSTECGGDKGRVKVITGPNSSGKSIYLKQVGLITFMALVGSFVPAEEAEIGAVDAIFTRIHSCESISLGLSTFMIDLNQVAKAVNNATAQSLVLIDEFGKGTNTVDGLALLAAVLRHWLARGPTCPHIFVATNFLSLVQLQLLPQGPLVQYLTMETCEDGNDLVFFYQVCEGVAKASHASHTAAQAGLPDKLVARGKEVSDLIRSGKPIKPVKDLLKKNQMENCQTLVDKFMKLDLEDPNLDLNVFMSQEVLPAATSIL | binds |
| f-hMSH5^R351G (protein, UniProt O43196 1-834) MASLGANPRRTPQGPRPGAASSGFPSPAPVPGPREAEEEEVEEEEELAEIHLCVLWNSGYLGIAYYDTSDSTIHFMPDAPDHESLKLLQRVLDEINPQSVVTSAKQDENMTRFLGKLASQEHREPKRPEIIFLPSVDFGLEISKQRLLSGNYSFIPDAMTATEKILFLSSIIPFDCLLTVRALGGLLKFLGRRRIGVELEDYNVSVPILGFKKFMLTHLVNIDQDTYSVLQIFKSESHPSVYKVASGLKEGLSLFGILNRCHCKWGEKLLRLWFTRPTHDLGELSSRLDVIQFFLLPQNLDMAQMLHRLLGHIKNVPLILKRMKLSHTKVSDWQVLYKTVYSALGLRDACGSLPQSIQLFRDIAQEFSDDLHHIASLIGKVVDFEGSLAENRFTVLPNIDPEIDEKKRRLMGLPSFLTEVARKELENLDSRIPSCSVIYIPLIGFLLSIPRLPSMVEASDFEINGLDFMFLSEEKLHYRSARTKELDALLGDLHCEIRDQETLLMYQLQCQVLARAAVLTRVLDLASRLDVLLALASAARDYGYSRPRYSPQVLGVRIQNGRHPLMELCARTFVPNSTECGGDKGRVKVITGPNSSGKSIYLKQVGLITFMALVGSFVPAEEAEIGAVDAIFTRIHSCESISLGLSTFMIDLNQVAKAVNNATAQSLVLIDEFGKGTNTVDGLALLAAVLRHWLARGPTCPHIFVATNFLSLVQLQLLPQGPLVQYLTMETCEDGNDLVFFYQVCEGVAKASHASHTAAQAGLPDKLVARGKEVSDLIRSGKPIKPVKDLLKKNQMENCQTLVDKFMKLDLEDPNLDLNVFMSQEVLPAATSIL | binds |
| f-hMSH5^L85F (protein, UniProt O43196 1-834) MASLGANPRRTPQGPRPGAASSGFPSPAPVPGPREAEEEEVEEEEELAEIHLCVLWNSGYLGIAYYDTSDSTIHFMPDAPDHESFKLLQRVLDEINPQSVVTSAKQDENMTRFLGKLASQEHREPKRPEIIFLPSVDFGLEISKQRLLSGNYSFIPDAMTATEKILFLSSIIPFDCLLTVRALGGLLKFLGRRRIGVELEDYNVSVPILGFKKFMLTHLVNIDQDTYSVLQIFKSESHPSVYKVASGLKEGLSLFGILNRCHCKWGEKLLRLWFTRPTHDLGELSSRLDVIQFFLLPQNLDMAQMLHRLLGHIKNVPLILKRMKLSHTKVSDWQVLYKTVYSALGLRDACRSLPQSIQLFRDIAQEFSDDLHHIASLIGKVVDFEGSLAENRFTVLPNIDPEIDEKKRRLMGLPSFLTEVARKELENLDSRIPSCSVIYIPLIGFLLSIPRLPSMVEASDFEINGLDFMFLSEEKLHYRSARTKELDALLGDLHCEIRDQETLLMYQLQCQVLARAAVLTRVLDLASRLDVLLALASAARDYGYSRPRYSPQVLGVRIQNGRHPLMELCARTFVPNSTECGGDKGRVKVITGPNSSGKSIYLKQVGLITFMALVGSFVPAEEAEIGAVDAIFTRIHSCESISLGLSTFMIDLNQVAKAVNNATAQSLVLIDEFGKGTNTVDGLALLAAVLRHWLARGPTCPHIFVATNFLSLVQLQLLPQGPLVQYLTMETCEDGNDLVFFYQVCEGVAKASHASHTAAQAGLPDKLVARGKEVSDLIRSGKPIKPVKDLLKKNQMENCQTLVDKFMKLDLEDPNLDLNVFMSQEVLPAATSIL | binds |
| f-hMSH5^L377F (protein, UniProt O43196 1-834) MASLGANPRRTPQGPRPGAASSGFPSPAPVPGPREAEEEEVEEEEELAEIHLCVLWNSGYLGIAYYDTSDSTIHFMPDAPDHESLKLLQRVLDEINPQSVVTSAKQDENMTRFLGKLASQEHREPKRPEIIFLPSVDFGLEISKQRLLSGNYSFIPDAMTATEKILFLSSIIPFDCLLTVRALGGLLKFLGRRRIGVELEDYNVSVPILGFKKFMLTHLVNIDQDTYSVLQIFKSESHPSVYKVASGLKEGLSLFGILNRCHCKWGEKLLRLWFTRPTHDLGELSSRLDVIQFFLLPQNLDMAQMLHRLLGHIKNVPLILKRMKLSHTKVSDWQVLYKTVYSALGLRDACRSLPQSIQLFRDIAQEFSDDLHHIASFIGKVVDFEGSLAENRFTVLPNIDPEIDEKKRRLMGLPSFLTEVARKELENLDSRIPSCSVIYIPLIGFLLSIPRLPSMVEASDFEINGLDFMFLSEEKLHYRSARTKELDALLGDLHCEIRDQETLLMYQLQCQVLARAAVLTRVLDLASRLDVLLALASAARDYGYSRPRYSPQVLGVRIQNGRHPLMELCARTFVPNSTECGGDKGRVKVITGPNSSGKSIYLKQVGLITFMALVGSFVPAEEAEIGAVDAIFTRIHSCESISLGLSTFMIDLNQVAKAVNNATAQSLVLIDEFGKGTNTVDGLALLAAVLRHWLARGPTCPHIFVATNFLSLVQLQLLPQGPLVQYLTMETCEDGNDLVFFYQVCEGVAKASHASHTAAQAGLPDKLVARGKEVSDLIRSGKPIKPVKDLLKKNQMENCQTLVDKFMKLDLEDPNLDLNVFMSQEVLPAATSIL | binds |

The remaining lines, values ahead:

| binding | Binder |
| --- | --- |
| binds | f-hMSH5^V206F (protein, UniProt O43196 1-834) MASLGANPRRTPQGPRPGAASSGFPSPAPVPGPREAEEEEVEEEEELAEIHLCVLWNSGYLGIAYYDTSDSTIHFMPDAPDHESLKLLQRVLDEINPQSVVTSAKQDENMTRFLGKLASQEHREPKRPEIIFLPSVDFGLEISKQRLLSGNYSFIPDAMTATEKILFLSSIIPFDCLLTVRALGGLLKFLGRRRIGVELEDYNVSFPILGFKKFMLTHLVNIDQDTYSVLQIFKSESHPSVYKVASGLKEGLSLFGILNRCHCKWGEKLLRLWFTRPTHDLGELSSRLDVIQFFLLPQNLDMAQMLHRLLGHIKNVPLILKRMKLSHTKVSDWQVLYKTVYSALGLRDACRSLPQSIQLFRDIAQEFSDDLHHIASLIGKVVDFEGSLAENRFTVLPNIDPEIDEKKRRLMGLPSFLTEVARKELENLDSRIPSCSVIYIPLIGFLLSIPRLPSMVEASDFEINGLDFMFLSEEKLHYRSARTKELDALLGDLHCEIRDQETLLMYQLQCQVLARAAVLTRVLDLASRLDVLLALASAARDYGYSRPRYSPQVLGVRIQNGRHPLMELCARTFVPNSTECGGDKGRVKVITGPNSSGKSIYLKQVGLITFMALVGSFVPAEEAEIGAVDAIFTRIHSCESISLGLSTFMIDLNQVAKAVNNATAQSLVLIDEFGKGTNTVDGLALLAAVLRHWLARGPTCPHIFVATNFLSLVQLQLLPQGPLVQYLTMETCEDGNDLVFFYQVCEGVAKASHASHTAAQAGLPDKLVARGKEVSDLIRSGKPIKPVKDLLKKNQMENCQTLVDKFMKLDLEDPNLDLNVFMSQEVLPAATSIL |
| binds | f-hMSH5^Y202C (protein, UniProt O43196 1-834) MASLGANPRRTPQGPRPGAASSGFPSPAPVPGPREAEEEEVEEEEELAEIHLCVLWNSGYLGIAYYDTSDSTIHFMPDAPDHESLKLLQRVLDEINPQSVVTSAKQDENMTRFLGKLASQEHREPKRPEIIFLPSVDFGLEISKQRLLSGNYSFIPDAMTATEKILFLSSIIPFDCLLTVRALGGLLKFLGRRRIGVELEDCNVSVPILGFKKFMLTHLVNIDQDTYSVLQIFKSESHPSVYKVASGLKEGLSLFGILNRCHCKWGEKLLRLWFTRPTHDLGELSSRLDVIQFFLLPQNLDMAQMLHRLLGHIKNVPLILKRMKLSHTKVSDWQVLYKTVYSALGLRDACRSLPQSIQLFRDIAQEFSDDLHHIASLIGKVVDFEGSLAENRFTVLPNIDPEIDEKKRRLMGLPSFLTEVARKELENLDSRIPSCSVIYIPLIGFLLSIPRLPSMVEASDFEINGLDFMFLSEEKLHYRSARTKELDALLGDLHCEIRDQETLLMYQLQCQVLARAAVLTRVLDLASRLDVLLALASAARDYGYSRPRYSPQVLGVRIQNGRHPLMELCARTFVPNSTECGGDKGRVKVITGPNSSGKSIYLKQVGLITFMALVGSFVPAEEAEIGAVDAIFTRIHSCESISLGLSTFMIDLNQVAKAVNNATAQSLVLIDEFGKGTNTVDGLALLAAVLRHWLARGPTCPHIFVATNFLSLVQLQLLPQGPLVQYLTMETCEDGNDLVFFYQVCEGVAKASHASHTAAQAGLPDKLVARGKEVSDLIRSGKPIKPVKDLLKKNQMENCQTLVDKFMKLDLEDPNLDLNVFMSQEVLPAATSIL |
